Here are results for 56 compounds from PubChem BioAssay AID2685 (National Center for Advancing Translational Sciences (NCATS), 2010).

SMILES strings stand for the structures. The list shows a part of the results. These are further read-outs of the screen, such as a control signal, another cell line or another target. No call is given for them. Compounds called inactive in the main read-out are mostly missing here. Words in brackets tell the shape of the fitted curve; partial curves, single points and poor fits give uncertain potencies.

The assay is described as follows: qHTS Assay for Lipid Storage Modulators in Drosophila S3 Cells.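 As to cell number change: cells counted by Cell Tracker Red CMTPX staining in the red channel.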 Conditions: BODIPY lipid droplet fluorescence, 18-24 h; for cell number change: measured here: cell count max response, cells fed with added oleic acid. In a few lines: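 Drosophila S3 cells got compounds at several concentrations plus oleic acid (400 uM solution). Laser-scanning cytometry with 488 nm excitation read lipid droplets at 500-530 nm and cells at 575-640 nm. Percent activity was relative to 20 uM Triacsin C.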
For orientation: Quantitative high-throughput screening tests each substance at several concentrations.

Where [1] appears, read: measured here: lipid fluorescence (Fed channel) AC50, cells fed with added oleic acid.
Where [2] appears, read: measured here: cell number channel AC50, cells fed with added oleic acid.

Turning to `COc1ccc(CNC(=O)CCC(=O)Nc2cccnc2)cc1`, the cell number change is -0.324%. Under setting [1], the AC50 is 0.116 µM [falling, full curve, poor fit].

With `O=C(Cc1c[nH]c2ccccc12)N1CCN(S(=O)(=O)c2ccc(Cl)cc2)CC1`, the cell number change was 26%.

As to `COC(=O)c1c(-c2ccc(OC)cc2)oc2ccc(-c3ccc(OC)nc3)cc12`, the cell number change is 16.2%. Further, under setting [1], the AC50 is 4.11 µM [falling, partial curve, poor fit].

Consider `CCCCCCSc1nnc(-c2cnn(-c3ccccc3)c2-n2cccc2)n1C`, for which the cell number change was 8.12%.

In the case of `CC1CCc2sc(NC(=S)NC(=O)c3ccccc3)c(C#N)c2C1` (configuration not stated), the cell number change was 17.5%. The AC50 under setting [1] is 0.651 µM [rising, full curve, poor fit].

In the case of `NC(CO)(CO)COCc1ccccc1`, the cell number change stood at 1.43%.

As to `Cc1ncc(CO)c2cc(C(=O)Nc3ccccc3Cl)c(=Nc3cccc(C(N)=O)c3)oc12`, the cell number change was -6.34%. Also, under setting [1], the AC50 is 3.26 µM [falling, full curve].

Take `O=C(c1cnn2c1NC(c1ccc(Br)cc1)CC2C(F)(F)F)N1CCN(C23CC4CC(CC(C4)C2)C3)CC1` (configuration not stated): the cell number change was -27.9%. Under setting [1], the AC50 is 29.1 µM [falling, single point].

As to `O=[N+]([O-])c1ccc(OCc2nnc(-c3ccccc3)o2)cc1`, under setting [1], the AC50 was 0.092 µM [rising, single point].

Consider `CC1CCC(NC(=O)CN2C(=O)C3CC=CCC3C2=O)CC1` (configuration not stated), for which the cell number change is -42.8%. In addition, under setting [2], the AC50 is 29.1 µM [falling, single point].

For the compound `CC1CN(S(=O)(=O)c2ccc(CN3C(=O)c4cccnc4C3=O)s2)c2ccccc2O1` (configuration not stated), the cell number change is -2.36%. Besides, under setting [1], the AC50 was 29.1 µM [rising, single point].

On to `CC(c1ccccc1)n1c(S(=O)(=O)O)nc2ccccc21` (configuration not stated), for which the cell number change is 10%. Further, the AC50 under setting [1] was 0.731 µM [rising, full curve, poor fit].

In the case of `Cc1cccc(NC2=Nc3ccccc3N3C2=Nc2c(c(C)nn2-c2ccccc2)C3c2ccc(O)c(O)c2)c1` (configuration not stated), the cell number change was -23.2%. Further, the AC50 under setting [1] is 29.1 µM [falling, single point].

For the compound `COc1cc(CC(=O)OCC(=O)Nc2ccc([N+](=O)[O-])cc2)cc(OC)c1OC`, the cell number change worked out at 113%. Also, the AC50 under setting [2] is 20.6 µM [rising, partial curve]. The AC50 under setting [1] is 20.6 µM [rising, partial curve].

As for `O=[N+]([O-])c1cccc(/C=C/c2nc(C=Nc3ccc4ccccc4c3)c(O)o2)c1`, the cell number change is 1.44%. In addition, under setting [1], the AC50 was 29.1 µM [falling, single point].

Take `O=C(CSc1nc(-c2ccccc2)c(-c2ccccc2)[nH]1)N1CCN(S(=O)(=O)c2ccccc2)CC1`: the cell number change was found to be 67.3%. The AC50 under setting [2] was 6.51 µM [rising, partial curve].

Take `O=C(OCC(=O)N1CCN(C(=O)c2ccco2)CC1)c1sc2cc(F)ccc2c1Cl`: the cell number change was -19.6%. In addition, the AC50 under setting [1] was 29.1 µM [falling, single point].

For `COc1ccc(/C=N/n2cnc3c([nH]c4ccc(Br)cc43)c2=O)cc1CN1CCOCC1`, the cell number change was -9.96%. Moreover, the AC50 under setting [2] is 3.66 µM [falling, single point].

For `CCOc1ccccc1N(C(=O)c1snc(C(N)=O)c1N)C(C(=O)NCC1CCCO1)c1ccc2ncccc2c1` (configuration not stated), the cell number change was -1.3%. Further, the AC50 under setting [1] was 6.51 µM [rising, single point].

Consider `O=C(NCCc1ccc(Cl)cc1)C1CCCO1` (configuration not stated), for which the cell number change turned out to be 54.1%. The AC50 under setting [2] was 2.06 µM [rising, partial curve]. The AC50 under setting [1] is 29.1 µM [rising, single point].

As to `C/C(N)=C(/C#N)C(=O)COC(=O)c1cc2c(s1)CCC(C)C2` (configuration not stated), the cell number change is -15.5%. The AC50 under setting [2] was 0.461 µM [falling, full curve]. Moreover, the AC50 under setting [1] was 0.00461 µM [falling, full curve, poor fit].

Regarding `C/C(=N/NC(=O)c1cc(Cl)ccc1O)C12CC3CC(CC(C3)C1)C2`, the cell number change is -33.5%. The AC50 under setting [2] is 32.6 µM [falling, single point]. For the same compound, the AC50 under setting [1] is 29.1 µM [falling, single point].

For `CCOC(=O)C1=C(C)NC(SCC(=O)Nc2cc(C)on2)=C(C#N)C1c1cccs1` (configuration not stated), the cell number change was -15.2%.

Turning to `CCOC(=O)N1CCN(C(=O)c2ccccc2CCc2ccccc2)CC1`, the cell number change was determined as 58.5%. Further, under setting [2], the AC50 was 18.4 µM [rising, single point]. For the same compound, the AC50 under setting [1] was 29.1 µM [rising, single point].

`COc1cccc2cc(C(C)N(CCCN3CCOCC3)C(=O)Nc3ccc(Cl)cc3)oc12` (configuration not stated): the cell number change is -32.9%. In addition, the AC50 under setting [2] is 29.1 µM [falling, single point]. In addition, the AC50 under setting [1] was 29.1 µM [falling, single point].

As to `Cc1ccc(N2C(=O)c3n[nH]c(C)c3C2c2cccnc2)cc1` (configuration not stated), the cell number change was -1.43%.

For `CCN(CC(=O)NCc1cccs1)C(=O)/C=C/c1cc(OC)ccc1OC`, the cell number change was -8.02%.

Take `Cc1ccsc1/C=N/n1c(-c2ccccn2)n[nH]c1=S`: the cell number change was -38.6%. Besides, the AC50 under setting [2] is 32.6 µM [falling, single point]. For the same compound, the AC50 under setting [1] was 4.61 µM [rising, full curve].

Turning to `O=C(Nc1ccccc1Cl)NC1(C(=O)N2CCCCC2)CCCCC1`, the cell number change was -15.5%. Further, the AC50 under setting [1] is 14.6 µM [falling, partial curve, poor fit].

With `OC(CNC1CCCCC1)CN1CCN(CC(O)CNC2CCCCC2)CC1` (configuration not stated), the cell number change is -14.7%. In addition, under setting [2], the AC50 was 0.00461 µM [falling, full curve, poor fit]. Further, the AC50 under setting [1] was 3.26 µM [falling, full curve].

As for `Cc1cc(=O)n2nc(N3CCCC3C(=O)Nc3cccc(Cl)c3C)sc2n1` (configuration not stated), the cell number change was 22.5%. For the same compound, the AC50 under setting [2] is 0.82 µM [rising, full curve, poor fit].

As for `CSc1ccccc1C(=O)Nc1cc([N+](=O)[O-])ccc1C`, the cell number change is -11.4%. Besides, the AC50 under setting [1] is 32.6 µM [falling, single point].

Consider `COc1ccc(NC(=S)N2CCC(NC(=O)c3ccc(F)cc3)CC2)cc1`, for which the cell number change was 2.99%.

As to `Oc1ccc(/C=N/Nc2ncc(Cl)cc2Cl)cc1`, under setting [1], the AC50 was 29.1 µM [rising, single point].

`Clc1ncn(CCOc2ccccc2)c1Cl`: under setting [1], the AC50 is 0.651 µM [rising, single point].

As for `Cc1c(CNC2CCCC2)c(C(=O)O)c(C)n1Cc1ccccc1`, the cell number change is -7.4%. Moreover, the AC50 under setting [1] is 0.103 µM [falling, full curve, poor fit].

For `CCN(CC)C(=O)C(=O)c1ccn(-c2c(C)csc2C(=O)OC)c1`, the cell number change is -14.5%. In addition, the AC50 under setting [1] is 32.6 µM [falling, single point].

For the compound `O=C(NNCc1ccc(O)cc1)c1ccccc1Cl`, the cell number change stood at 19.4%.

On to `C=CCN(C(=O)c1csnn1)C(C(=O)NCc1ccc(F)cc1)c1cccs1` (configuration not stated), for which the cell number change was found to be 3.85%. Besides, the AC50 under setting [1] was 2.91 µM [falling, single point].

In the case of `Cc1ccc(S(=O)(=O)N2CCC(C(=O)Nc3ccc(S(=O)(=O)N4CCCC4)cc3)CC2)cc1`, the cell number change was -31.3%. The AC50 under setting [2] is 16.4 µM [falling, single point]. For the same compound, under setting [1], the AC50 was 18.4 µM [falling, single point].

With `Cc1nc(Nc2ccncc2)c2oc3ccccc3c2n1`, the cell number change amounted to 83.9%. For the same compound, the AC50 under setting [2] is 6.51 µM [falling, single point]. Moreover, under setting [1], the AC50 is 2.59 µM [falling, partial curve].

With `COc1ccc(-c2oc(=O)n(C)c2-c2ccc(OC)cc2)cc1`, the AC50 reads like this: under setting [2], 6.51 µM [rising, single point]; under setting [1], 5.8 µM [rising, single point].

Regarding `Cc1nccn1CCCNC(=O)CC1C(=O)NCCN1Cc1ccc(F)cc1Cl` (configuration not stated), the cell number change is -4.88%. In addition, under setting [1], the AC50 was 0.013 µM [falling, full curve, poor fit].

Regarding `COc1ccc(S(=O)(=O)N(CC(=O)NCc2cccnc2)C2CCCCC2)cc1OC`, the cell number change was determined as 13.3%. Also, the AC50 under setting [1] was 6.51 µM [rising, single point].

As to `Cc1ccc2c(C)c(C(=O)NCC(C)(C)N3CCOCC3)oc2c1C`, the cell number change worked out at 17.3%. Moreover, the AC50 under setting [1] was 16.4 µM [rising, partial curve].

As for `C#CCOCCOCCOCCNc1nc(N2CCN(C(=O)CCCCCCCCCCNC(=O)[C@H]([C@@H](C)CC)n3cc(CCCCN=C(N)N)nn3)CC2)nc(N2CCN(C(=O)CCCCCCCCCCNC(=O)[C@@H]([C@H](C)O)n3cc(C)nn3)CC2)n1`, the cell number change was -43.4%. The AC50 under setting [2] is 8.2 µM [falling, partial curve, poor fit]. Further, the AC50 under setting [1] is 9.2 µM [falling, partial curve].

Take `COc1ccc(CC(=O)N2N=C(c3ccncc3)CC2(O)C(F)(F)F)cc1` (configuration not stated): the concentration at half-maximal activity (AC50) by setting is: under setting [2], 3.26 µM [rising, single point]; under setting [1], 3.66 µM [rising, full curve].

As to `COC(=O)[C@@]12CCCCN1[C@H](c1ccc(SC3CCCCC3)c(OC)c1)[C@@H]1C(=O)N(C)C(=O)[C@@H]12`, the cell number change was 17.6%. Moreover, the AC50 under setting [1] was 0.103 µM [rising, full curve, poor fit].

For the compound `CC1(c2ccccc2)NC(=O)N(CC(=O)NNC(=O)c2ccccc2F)C1=O` (configuration not stated), the cell number change is -24%. The AC50 under setting [2] was 0.0058 µM [falling, full curve, poor fit].

Regarding `CCCSc1nc(N2CCOCC2)c2c(c1C#N)CC(C)(C)SC2`, the AC50 under setting [1] is 1.3 µM [falling, full curve].

`N#Cc1c(N)nc2c(c1-c1ccncc1)CCCCC2`: the cell number change was -21.3%.

Regarding `Cc1onc(NC(=O)c2ccc(Cl)cc2Cl)c1Br`, the cell number change stood at 20.8%. The AC50 under setting [1] was 0.00461 µM [falling, full curve, poor fit].

Turning to `O=C(NC(=S)Nc1ccccc1Br)C1CCCC1`, the cell number change was determined as 28.4%. Also, under setting [1], the AC50 was 14.6 µM [rising, partial curve].

As for `COc1ccc(Cn2nnnc2C(c2ccccn2)N2CCN(c3cc(Cl)ccc3C)CC2)cc1` (configuration not stated), the cell number change is -8.91%. Further, the AC50 under setting [2] is 1.16 µM [falling, single point].

Turning to `Cc1nc(CS(=O)(=O)c2ccc(Cl)cc2)cc(Sc2ccccc2Cl)n1`, the cell number change amounted to 32.6%. Also, the AC50 under setting [2] was 18.4 µM [rising, single point]. The AC50 under setting [1] was 18.4 µM [rising, single point].

`COc1ccc(CCNC(=O)/C=C/c2ccc(C)cc2)cc1OC`: the cell number change is -38.5%. For the same compound, the AC50 under setting [2] is 9.2 µM [falling, partial curve]. In addition, the AC50 under setting [1] was 8.2 µM [falling, partial curve].

By AC50 is commonly meant the midpoint of the concentration-response curve, whichever way the signal moves. A high value points to activity only at high concentration.
